Results deposited as PubChem BioAssay AID1508597 (Cure First, 2020)

- Assay: 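Genes whose silencing sensitises or protects ovarian cancer cells against rucaparib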 (primary screen)
- Cell system: human ovarian carcinoma lines grown from tumours: OCI-P5x (papillary serous) and OCI-C5x (clear cell)
- Reagent: siRNA pool against human genes, 1.25 pmol siRNA per well
- Timing: 72 h or 96 h, depending on the cell culture
- Conditions: rucaparib 20 µM (about IC30) or vehicle, present until read-out
- Rucaparib or vehicle: Vehicle
- Cell line: OCI-C5x (clear cell)
- Detection: 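ATP luminescence measured at 72 or 96 h according to the culture, then normalised and expressed as percent viability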
- Scale: viability, normalised: higher = more viable cells remaining
- Rule for the call: 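a well counts as a hit if its normalised viability is under 80 percent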
- Calls: active = viability under 80%; inactive = viability 80% or more
This is a random part of the about 2,100 reagents, under one of the conditions tested. 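Calls flag viability under 80% in either arm, not effects specific to rucaparib; the reference for percent is not stated.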 A number with no mark means an inactive call. Not given: the 100% reference.

gene	technical replicate	viability, normalised (%)
HNRNPU	1	40.9 (active)
HNRNPU	2	33.6 (active)
HNRNPU	3	41.1 (active)
YEATS4	1	40.8 (active)
YEATS4	2	70.8 (active)
YEATS4	3	58.1 (active)
RAI1	1	35 (active)
RAI1	2	27.9 (active)
RAI1	3	29.6 (active)
FOXA1	1	51 (active)
FOXA1	2	51.2 (active)
FOXA1	3	52.7 (active)
MORF4L1	1	60.4 (active)
MORF4L1	2	56.4 (active)
MORF4L1	3	65.7 (active)

Sorted by “viability, normalised (%)” (low to high): some entries from above.
gene	technical replicate	viability, normalised (%)
RAI1	2	27.9 (active)
RAI1	3	29.6 (active)

Further results:
gene	technical replicate	viability, normalised (%)
PGK2	1	62.6 (active)
PGK2	2	75.2 (active)
PGK2	3	53.6 (active)
SMPDL3A	1	65.3 (active)
SMPDL3A	2	45.4 (active)
SMPDL3A	3	41.4 (active)
ZNF541	1	31.1 (active)
ZNF541	2	56.7 (active)
ZNF541	3	60.8 (active)
